Measured values taken from the supplement of paper PMC5949888.
Most values lie at the floor of the assay. Slopes are relative: functional sequences can read slightly below zero.

System: Saccharomyces cerevisiae PS128 hsf1 delta, HSF1(1-493) fusion
Assay: growth estimate (transactivation domain function in HSF1 fusion, heat-shock survival) (a.u. (slope of normalised read count over time)); higher = stronger growth at 37°C, i.e. more transactivation activity
Conditions: library: random library

Row | Substance | growth estimate
1 | LIVEVWGGHEPIRMRPALQL | < -0.25
2 | LIVVTLPSSTHRVGCSLSE | < -0.25
3 | LIWGGPPIALLGRPAGNCLP | < -0.25
4 | LIYFEGAHVKL | < -0.25
5 | LIYVVWGPTRPWRL | < -0.25
6 | LKAVLLLLYRGSSHILSPRP | < -0.25
7 | LKDAVDGASVPQGSGTAVGV | < -0.25
8 | LKDFSLPRAQSPCEDSIVLF | < -0.25
9 | LKDTRTPCQG | < -0.25
10 | LKEWAHLRHLHYPRLSNAGV | < -0.25
11 | LKFRLVVC | < -0.25
12 | LKGHGPI | < -0.25
13 | LKGSGTIFATRSEQEFMITG | < -0.25
14 | LKGSLGLALVVFTGATWMVF | < -0.25
15 | LKIFGEHLFRVPRP | < -0.25
16 | LKINICLSKRQRALGLRFVP | -0.25
17 | LKKSAGERVCIFCCAQTLRV | < -0.25
18 | LKLISIFVI | < -0.25
19 | LKLLCEPPGGQRDTFRGARP | < -0.25
20 | LKLTVRSP | < -0.25
21 | LKMRMLRDEEIV | < -0.25
22 | LKPKLCHRLKMGLAGT | < -0.25
23 | LKPNRSSPGQMPFYI | < -0.25
24 | LKQSSVSVLRRVKVIFERGV | < -0.25

Row | Substance | growth estimate
25 | LKRIRIALAINSARDKGPYS | < -0.25
26 | LKRRGDRLVC | < -0.25
27 | LKSGGQSQNAIRRALLFGAN | < -0.25
28 | LKSNGGNTAVSID | < -0.25
29 | LKSRKTTLLGRTVKESRVTP | < -0.25
30 | LKSRQWGRVMGS | -0.217
31 | LKTKGASFGGRGLQEYRLRP | < -0.25
32 | LKTLGERGNRCSNYCTWNSP | < -0.25
33 | LKTLLQEGVATMCKSILAPG | < -0.25
34 | LKTVLSLV | < -0.25
35 | LKTVRFCSMSESSGPDKGIP | < -0.25
36 | LKVG | < -0.25
37 | LKYMSLVQSAPLRPTSPFPN | < -0.25
38 | LLALYPPVVLPGPLCASLGC | < -0.25
39 | LLCLNVAGSSIQDRNAITDE | < -0.25
40 | LLDGKGALRQCARRQSTYGA | < -0.25
41 | LLDKP | < -0.25
42 | LLDRSMDFP | < -0.25
43 | LLDSEAGS | < -0.25
44 | LLDYCLSGASRSFHK | < -0.25
45 | LLEPRIWGAGIVTKC | < -0.25
46 | LLFIAQYRMA | < -0.25
47 | LLFQWFLTASRERVAAHFCA | < -0.25
48 | LLG | < -0.25

Given with tabs: part of the list above
Row	Substance	growth estimate
30	LKSRQWGRVMGS	-0.217
31	LKTKGASFGGRGLQEYRLRP	< -0.25
32	LKTLGERGNRCSNYCTWNSP	< -0.25
33	LKTLLQEGVATMCKSILAPG	< -0.25
34	LKTVLSLV	< -0.25
35	LKTVRFCSMSESSGPDKGIP	< -0.25

(cont.)

Row | Substance | growth estimate
49 | LLGALTDV | < -0.25
50 | LLGEARFGTLETSTPVRGSF | < -0.25
51 | LLGFKGISEDFRELGSYEGV | < -0.25
52 | LLGHQTNKGF | < -0.25
53 | LLGKVTYSQKVCTKSPGRLT | < -0.25
54 | LLGLGKCGGSDSVGREDVSR | < -0.25
55 | LLGLRDGIGRRARVNDRETL | < -0.25
56 | LLGRQHQLWQSRKRCETERG | < -0.25
57 | LLGTTIDRWYMAPSNLDRAI | < -0.25
58 | LLGYLRGPDKDVCSIVGHKH | < -0.25
59 | LLH | < -0.25
60 | LLHRLVTRWIRLQGVSD | < -0.25
61 | LLIAHSVIFILPLSGRNLSM | < -0.25
62 | LLIALDHERNKSSRVLCNWL | < -0.25
63 | LLIEPLRPA | < -0.25
64 | LLIEVRFR | < -0.25
65 | LLIGDIRQRLLY | < -0.25
66 | LLIGTPQSS | < -0.25
67 | LLIVWPGASAS | < -0.25
68 | LLKDEKPAIHLVGFARRNIF | < -0.25
69 | LLKGVSCAATCLCGGPFRHR | < -0.25
70 | LLKRKRKITPGIL | < -0.25
71 | LLLCFGIAIRIMPLSRRIIS | < -0.25
